Reference: publication PMC3929491
These are yes or no findings as the source states them, for the method shown. Binding seen in cells or lysates may run through a third protein. Some entries that bind do so weakly or less than the wild type.

The chains behind the UniProt entries cited, without tags or fusion partners. Residues count along the entry.
UniProt P16070, residues 21-742: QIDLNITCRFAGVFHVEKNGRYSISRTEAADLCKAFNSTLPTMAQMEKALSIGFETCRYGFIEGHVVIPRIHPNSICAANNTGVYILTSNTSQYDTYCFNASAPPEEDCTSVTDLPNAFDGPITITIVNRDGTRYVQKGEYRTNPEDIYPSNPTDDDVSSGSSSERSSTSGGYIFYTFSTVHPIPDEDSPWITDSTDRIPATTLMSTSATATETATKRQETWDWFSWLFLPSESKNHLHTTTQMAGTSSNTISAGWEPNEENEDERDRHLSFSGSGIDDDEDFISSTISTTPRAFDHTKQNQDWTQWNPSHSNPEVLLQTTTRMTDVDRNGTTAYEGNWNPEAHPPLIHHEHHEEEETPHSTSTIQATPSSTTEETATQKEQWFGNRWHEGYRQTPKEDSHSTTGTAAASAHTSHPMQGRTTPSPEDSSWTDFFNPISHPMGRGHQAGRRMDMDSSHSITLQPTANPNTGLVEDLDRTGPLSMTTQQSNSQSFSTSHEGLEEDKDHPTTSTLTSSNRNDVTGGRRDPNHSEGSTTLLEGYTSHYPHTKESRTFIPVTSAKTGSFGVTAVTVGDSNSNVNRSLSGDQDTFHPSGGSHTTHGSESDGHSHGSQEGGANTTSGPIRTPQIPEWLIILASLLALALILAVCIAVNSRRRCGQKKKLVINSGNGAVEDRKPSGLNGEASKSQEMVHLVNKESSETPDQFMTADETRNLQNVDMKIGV
UniProt P29317, residues 24-976: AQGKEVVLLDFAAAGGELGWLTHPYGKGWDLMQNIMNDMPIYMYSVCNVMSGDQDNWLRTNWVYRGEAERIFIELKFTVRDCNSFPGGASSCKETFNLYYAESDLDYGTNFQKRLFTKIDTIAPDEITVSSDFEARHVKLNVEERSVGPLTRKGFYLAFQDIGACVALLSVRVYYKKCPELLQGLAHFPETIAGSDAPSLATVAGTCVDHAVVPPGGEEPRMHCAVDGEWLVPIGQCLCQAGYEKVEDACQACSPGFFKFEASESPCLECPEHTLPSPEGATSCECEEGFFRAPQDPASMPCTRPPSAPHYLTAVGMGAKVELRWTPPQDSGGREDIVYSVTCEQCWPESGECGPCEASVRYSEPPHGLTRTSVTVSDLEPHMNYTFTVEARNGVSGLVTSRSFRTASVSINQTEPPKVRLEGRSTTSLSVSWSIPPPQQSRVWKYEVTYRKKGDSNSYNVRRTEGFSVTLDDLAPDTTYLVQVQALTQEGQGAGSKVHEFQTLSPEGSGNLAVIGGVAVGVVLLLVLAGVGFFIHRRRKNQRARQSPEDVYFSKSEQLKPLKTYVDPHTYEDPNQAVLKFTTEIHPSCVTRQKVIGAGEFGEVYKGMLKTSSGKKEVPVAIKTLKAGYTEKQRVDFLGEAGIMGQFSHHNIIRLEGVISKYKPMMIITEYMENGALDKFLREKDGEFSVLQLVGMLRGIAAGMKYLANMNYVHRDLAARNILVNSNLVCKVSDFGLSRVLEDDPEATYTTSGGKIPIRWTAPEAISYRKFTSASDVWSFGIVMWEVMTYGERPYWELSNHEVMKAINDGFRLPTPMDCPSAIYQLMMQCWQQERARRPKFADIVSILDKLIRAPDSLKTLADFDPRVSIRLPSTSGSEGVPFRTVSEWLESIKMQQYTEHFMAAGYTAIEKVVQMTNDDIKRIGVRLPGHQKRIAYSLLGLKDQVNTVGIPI

Molecular target: CD44 (human (endogenous in HCC38)) (UniProt P16070)
Assay: co-IP; HCC38 lysate (100 mM Tris-HCl pH 7.5, 1% Brij35, 0.14 M NaCl, 1 mM CaCl2, 1 mM MnCl2), precleared, immunoprecipitated with anti-CD44 (clone 156-3C11)-protein G beads or control IgG beads, 4 h at 4°C; blot with anti-EphA2

binding: binds
Substance: EphA2 (from UniProt P29317 24-976) (receptor)
